From patent US20230255970A1, “COMPOSITIONS AND METHODS FOR TREATING PROLIFERATIVE DISEASES” (The Broad Institute, Inc., priority 2020, published 2023)
Some of these results come from one statement about several compounds together.

Tested on: rat cortical neurons
Assay: Mitochondrial motility assay in rat cortical neurons
Type: cell-based
Details: 10 μM, two experiments (week 1 and week 2)

| SMILES | integrated distance traveled for each motile mitochondrion, z-score |
| --- | --- |
| CC(C)(C)n1nc(-c2ccc(Cl)cc2)c2c(N)ncnc21 [BRD-K95785537, 1-(tert-butyl)-3-(4-chlorophenyl)-1H-pyrazolo[3,4-d]pyrimidin-4-amine] | > 3 |
| CNc1ccc2oc(C[C@H]3O[C@@]4(CC[C@H]3C)O[C@H]([C@H](C)C(=O)c3ccc[nH]3)[C@H](C)C[C@H]4C)nc2c1C(=O)O [Calcimycin, reference compound] | > 3 |
| CC(C)(C)n1nc(-c2cccc3ccccc23)c2c(N)ncnc21 [BRD-K29542628, 1-(tert-Butyl)-3-(naphthalen-1-yl)-1H-pyrazolo[3,4-d]pyrimidin-4-amine] | > 3 |
